The values below come from patent US5447931A, “New therapeutic use of heterocyclylpiperazines as 5-HT3 agonists and new compounds” (Sanofi, priority 1992, dated 1995).

For this assay, the system named is 5-HT3 receptors. The assay is described as follows: Bezold-Jarisch effect (reduction of heart rate) in the anesthetized rat, intravenous administration. Format: in vivo, Sprague-Dawley rats. The note with it: antagonist against the heart rate reduction by compounds of formula (I).

Take `CC[C@@H](CO)NC(=O)[C@@H]1C=C2c3cccc4c3c(cn4C)C[C@H]2N(C)C1` [methysergide]: the “inhibition by antagonist of the Bezold-Jarisch effect evoked by compounds of formula (I)” value is “not inhibited”.
